At least one compound was matched to its structure with a doubt left.
Tested on: mouse Angptl4 promoter
Test: Angptl4 promoter-reporter (SEAP) study in HEK 293 cells and GECs
Assay type: cell-based
Settings: dexamethasone 10^−3 M, 48 hours
Method: We conducted 5′ RACE and primer extension analysis using mouse kidney mRNA and confirmed the same transcriptional start site in the kidney. Next, a 2 Kb fragment upstream of the transcriptional start site was clone using BAC clone RP23-27D5 as a template into pSEAP2 basic. A 2 Kb human Angptl4 promoter constructs were similarly generated using BAC clone RP11-886P16.
Incubation of HEK 293 cells and GECs transfected with Angptl4-pSEAP or empty vector promoter—reporter constructs for mouse Angptl4 with dexamethasone (10^−3 M) show a decline in SEAP activity at 48 hours. This decline in activity is mediated via the glucocorticoid receptor, since it is reversed by the receptor antagonist mifepristone (2×10^−5 M). Glucocorticoid sensitivity of the human promoter was also assessed (dexamethasone 10^−4 M). All transfection reactions were normalized using the pβgal vector (Clontech, Mountain View Calif. USA).

C[C@@H]1C[C@H]2[C@@H]3CCC4=CC(=O)C=C[C@]4(C)[C@@]3(F)[C@@H](O)C[C@]2(C)[C@@]1(O)C(=O)CO [dexamethasone] was tested, and the SEAP activity was “decline”.

Reference: patent US10624914B2, “Methods for determining the level of hyposialylation of Angptl4” (priority 2010, dated 2020)
